# Data from PubChem BioAssay AID540275 (National Center for Advancing Translational Sciences (NCATS), 2011).
# By UniProt entry, the sequences of proteins in these tests, tags left out.
# UniProt Q8NER1, whole entry, looked up: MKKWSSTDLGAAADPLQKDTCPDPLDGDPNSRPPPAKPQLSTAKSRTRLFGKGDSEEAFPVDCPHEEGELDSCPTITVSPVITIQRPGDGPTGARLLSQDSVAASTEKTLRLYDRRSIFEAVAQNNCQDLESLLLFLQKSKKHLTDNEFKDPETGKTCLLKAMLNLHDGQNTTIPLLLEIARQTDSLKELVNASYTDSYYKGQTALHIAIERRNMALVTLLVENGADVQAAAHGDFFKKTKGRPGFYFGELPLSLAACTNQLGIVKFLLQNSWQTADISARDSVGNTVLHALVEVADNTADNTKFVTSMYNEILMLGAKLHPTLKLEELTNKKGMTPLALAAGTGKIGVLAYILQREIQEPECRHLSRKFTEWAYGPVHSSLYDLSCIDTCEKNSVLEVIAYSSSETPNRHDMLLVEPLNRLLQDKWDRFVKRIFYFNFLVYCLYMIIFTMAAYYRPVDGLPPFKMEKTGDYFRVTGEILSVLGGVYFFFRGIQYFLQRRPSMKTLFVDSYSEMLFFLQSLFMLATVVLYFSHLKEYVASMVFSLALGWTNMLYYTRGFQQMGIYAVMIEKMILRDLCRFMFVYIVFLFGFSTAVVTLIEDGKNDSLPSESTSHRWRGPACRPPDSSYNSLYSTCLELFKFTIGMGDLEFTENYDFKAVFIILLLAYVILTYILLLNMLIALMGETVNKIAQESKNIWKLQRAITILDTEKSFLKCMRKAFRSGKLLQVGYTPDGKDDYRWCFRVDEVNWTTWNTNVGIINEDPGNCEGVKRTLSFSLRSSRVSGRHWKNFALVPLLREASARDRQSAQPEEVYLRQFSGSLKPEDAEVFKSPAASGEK
# Among all 320,000 compounds or so, about 620 (0.19%) were called active. The inconclusive results got no clear call from the source; some entries with a clear call stand among them for comparison. Cut-off read from the data, not from the text of the source: active = activation above about 80%; inconclusive = between about 30% and that limit; inactive = weaker than that.
# Target: Transient receptor potential cation channel subfamily V member 1 (Homo sapiens) (UniProt Q8NER1)
# Experiment: HTS Assay for Compounds that Act as Agonists of the Vanilloid Receptor 1; note: 0% is about no effect
# Conditions: TRPV1-expressing cells, Fluo-8 calcium influx, agonist mode; at 8.33 µM, active compounds read high
# From the text: The transient receptor potential ion channel, family V, number 1, (TRPV1) is one of the most important molecular transducers of painful stimuli and a potential target for analgesic drug development. Although recent clinical trials with orthosteric antagonists have not produced a successful drug because of a hyperthermia side effect and their tendency to block thermal noxious pain, this ion channel is undeniably well placed in the pain pathway, and the idea of blocking pain signals before they enter the CNS is an excellent concept and of proven efficacy when TRPV1 agonists are used. We propose a new approach involving allosteric modulation to impose an activity-dependent constraint within the context of inflammation and tissue damage that would alter the responsiveness of the channel in a way that an orthosteric vanilloid antagonist cannot achieve. We believe that the allosteric modulator approach has not been explored for this target. The main goal of this proposal is to identify additional, new, potent allosteric modulators of TRPV1 that can be used to investigate TRPV1 function. Our recent report provides evidence of proof of concept, but the compounds are just at the edge of utility in terms of potency. […] The question of whether they can be used as analgesic agents is complex, but if suitable compounds are identified then testing for analgesic properties will be conducted. NIH Chemical Genomics Center [NCGC] NIH Molecular Libraries Probe Centers Network [MLPCN] MLPCN Grant: MH089480-1A1 Assay Submitter (PI): Michael Iadarola, National Institute of Dental and Cranofacial Research
# Upon TRPV1 activation in TRPV1 cells, the channel opens and extracellular cations flow through the channel into the cytosol. A calcium binding dye (Fluo-8) becomes fluorescent when bound to calcium. This dye is pre-loaded into cells and is used as a marker for calcium influx. The amount of accumulated calcium is precisely quantified using the FDSS kinetic reader and the calcium dye. For the HTS assay, freshly prepared cells are plated at a density of 2000/well in 3 ul medium in 1536-well plates and cultured overnight at 35.5C. Cells will be loaded with 1 ul of the homogeneous calcium dye (ABD Bioquest) at room temperature for 40 to 90 minutes. Plates will be loaded into the FDSS kinetic reader and a 1 sec / cycle for 10 second baseline signal will be measured. Compound library will then be added with a pintool at 23 nl and measured kinetically for 3 minutes. This portion of the read is considered the agonist portion of the screen. Following the 3 minutes of incubation, an on board pipettor will deliver 1 ul of capsaicin for a final concentration equal to the EC20. Signal will be measured kinetically for an additional 2 minutes. This portion of the read is considered the allosteric enhancer portion of the screen. The FDSS reader has a standard filter set capable of measuring calcium bound Fluo-8 (ex=480 and em=520 nm).
row,SMILES,activation
1,O=C(C1CCCCC1)N1CCCn2c1nc1ccccc12,inconclusive: 31.5%
2,O=C(CSC1CN(C(c2ccccc2)c2ccccc2)C1)N/N=C/c1ccccc1,inconclusive: 42.2%
3,Cc1nc(SCC(=O)Nc2cc(C(N)=O)cc(C(N)=O)c2)c2c(C)c(C)sc2n1,inactive: -0.115%
4,COc1ccc(C(=O)Nc2cccc(-c3nnc(-c4ccco4)o3)c2)cc1,inconclusive: 37%
5,O=C(NCc1ccccc1)C(c1ccccc1)N(Cc1ccc2c(c1)OCO2)C(=O)Cc1cccs1 (stereo unspecified),inactive: 2.38%
6,Cc1c(NC(=O)COc2cccc3c2OC(C)(C)C3)c(=O)n(-c2ccccc2)n1C,inactive: -1.93%
7,O=C(NN=C1CCCC1)c1ccn[nH]1,inactive: 4.98%
8,Cc1cc(C)cc(N2C(=O)CN(Cc3ccccc3)C2=S)c1,inconclusive: 39.1%
9,S=C(NC1CCCCC1)NC1CC2C=CC1C2 (stereo unspecified),inconclusive: 31.4%
10,OCCSc1nc(-c2ccccc2)nc2ccc(F)cc12,inconclusive: 41.4%
11,COC(=O)c1c(C)[nH]c(C(=O)COc2ccc3ccc(=O)oc3c2)c1C,inactive: -2.5%
12,Cc1ccc(NC(=O)Cc2sc(C)nc2-c2ccc(C)cc2)cc1,inconclusive: 31.5%
13,Cc1ccc(N(Cc2cc3cc(C)ccc3[nH]c2=O)S(=O)(=O)c2ccccc2)cc1,inactive: 9.94%
14,CN1CCN(S(=O)(=O)c2cc([N+](=O)[O-])ccc2N2CCCCCC2)CC1,inconclusive: 30.1%
15,CCOC(=O)c1c(-c2ccc(Cl)cc2)cn2ccccc12,inactive: -1.96%
16,O=C(Nc1ccc(Cl)cc1)NC1CCCc2ccccc21 (stereo unspecified),inconclusive: 45.7%
17,CC(C)(C)c1ccc(NC(=O)COC(=O)C2CCCC2)cc1,inconclusive: 51%
18,Fc1cccc(Nc2ncnc3c2cnn3-c2ccccc2)c1,inconclusive: 72.1%
19,CC(C)c1onc(C(=O)Nc2cccc(O)c2)c1[N+](=O)[O-],inconclusive: 33.8%

row,SMILES,activation
1,CCCNC(=O)c1onc(CSc2ccc(F)cc2)c1C(=O)NCC1CC1,inconclusive: 63.9%
2,O=C(Nc1ccccc1)O[C@@H]1C[C@H]2CCC(=O)N3CC[C@@H](C1)[C@@H]23,inconclusive: 37.3%
3,O=C(CN1C(=O)/C(=C\c2ccccc2Cl)Oc2ccccc21)NCc1cccnc1,inconclusive: 51%
4,CC(C)(C)c1cc(C(=O)NN)n(Cc2ccc(F)cc2)n1,inconclusive: 30.6%
5,Cc1cc(C(C)(C)C)oc1C(=O)N(CC(=O)NC1CCCC1)c1c(C)cccc1C,inconclusive: 45.2%
6,O=C(COc1ccc([N+](=O)[O-])cc1)N1CCc2ccccc2C1,inconclusive: 43.4%
7,CC(NC(=O)CSC(=S)N(C)C)C12CC3CC(CC(C3)C1)C2 (stereo unspecified),inconclusive: 33.2%
8,CC(C)(C)c1ccc(C(=O)NCCOc2ccccc2F)cc1,inconclusive: 54.7%
9,Cc1ccc(C(C)C)c(OCc2nn(CC(=O)c3ccc(OC(F)F)cc3)c3[n+]2CCCCC3)c1,inactive: 12.2%
10,COc1ccc(C2=NOC(C(=O)Nc3ccc(C)cc3)C2)cc1OC (stereo unspecified),inconclusive: 35.1%
11,Cc1ccc(NC2=CC(=O)CC(c3ccccc3)C2)cc1 (stereo unspecified),inconclusive: 41.4%
12,C[C@H]1COC2=C1C(=O)C(=O)c1c2ccc2c1CCCC2(C)C,inactive: 9.21%
13,CCCC1=NN2C(=N)/C(=C\c3cc(C)n(Cc4ccccc4)c3C)C(=O)N=C2S1,inconclusive: 60.9%
14,Cc1ccc2[nH]c3c(c2c1)CN(C(=O)CN1CCSCC1)CC3,inconclusive: 36.6%
15,O=C(c1ccc(S(=O)(=O)N2CCCCCC2)cc1)N1CCCC(C(F)(F)F)C1 (stereo unspecified),inconclusive: 33.3%
16,CCOC(=O)c1ccccc1NC(=O)c1cc(S(=O)(=O)N2CCOCC2)ccc1F,inconclusive: 40.7%
17,CCN1CCN(CCCOc2ccc(-c3ccccc3)cc2)CC1,inactive: 7.9%
18,CC(=O)C1(C)N(O)C(C)(C)C(c2cccs2)=[N+]1[O-] (stereo unspecified),inconclusive: 35.7%
19,CCOC(=O)C(CC)n1cnc2c(cnn2-c2ccc(Cl)cc2)c1=O (stereo unspecified),inconclusive: 36.5%

# Shown as tab-separated lines: part of the list above.
row	SMILES	activation
12	Cc1ccc(NC(=O)Cc2sc(C)nc2-c2ccc(C)cc2)cc1	inconclusive: 31.5%
13	Cc1ccc(N(Cc2cc3cc(C)ccc3[nH]c2=O)S(=O)(=O)c2ccccc2)cc1	inactive: 9.94%
14	CN1CCN(S(=O)(=O)c2cc([N+](=O)[O-])ccc2N2CCCCCC2)CC1	inconclusive: 30.1%
15	CCOC(=O)c1c(-c2ccc(Cl)cc2)cn2ccccc12	inactive: -1.96%
16	O=C(Nc1ccc(Cl)cc1)NC1CCCc2ccccc21 (stereo unspecified)	inconclusive: 45.7%
17	CC(C)(C)c1ccc(NC(=O)COC(=O)C2CCCC2)cc1	inconclusive: 51%
18	Fc1cccc(Nc2ncnc3c2cnn3-c2ccccc2)c1	inconclusive: 72.1%
19	CC(C)c1onc(C(=O)Nc2cccc(O)c2)c1[N+](=O)[O-]	inconclusive: 33.8%
1	CCCNC(=O)c1onc(CSc2ccc(F)cc2)c1C(=O)NCC1CC1	inconclusive: 63.9%
2	O=C(Nc1ccccc1)O[C@@H]1C[C@H]2CCC(=O)N3CC[C@@H](C1)[C@@H]23	inconclusive: 37.3%
3	O=C(CN1C(=O)/C(=C\c2ccccc2Cl)Oc2ccccc21)NCc1cccnc1	inconclusive: 51%
4	CC(C)(C)c1cc(C(=O)NN)n(Cc2ccc(F)cc2)n1	inconclusive: 30.6%
5	Cc1cc(C(C)(C)C)oc1C(=O)N(CC(=O)NC1CCCC1)c1c(C)cccc1C	inconclusive: 45.2%

# Additional results

row,SMILES,activation
1,Clc1ccc(-c2nnnn2-c2ccc(Cl)cc2)cc1,inactive: 7.09%
2,COc1cc(/C=C(\C#N)c2nc3ccccc3[nH]2)ccc1Oc1ccc([N+](=O)[O-])cn1,inconclusive: 33.5%
3,CC1CCN(S(=O)(=O)c2ccc(NC(=O)c3cccs3)cc2)CC1,inconclusive: 56.5%
4,CC(C)(C)/C(Cn1cncn1)=N\OC(=O)Nc1ccc(Cl)cc1,inactive: 25.6%
5,COc1cccc(NC(=O)C2CCN(C(=O)NC3CCCCC3)CC2)c1,inconclusive: 38.3%
6,Cc1ccc(CNC(=O)Nc2ccc(Cl)cc2)cc1,inactive: 27.5%
7,COc1ccc2c(c1)C=C(CN1CCN(Cc3ccccc3C)C(CCO)C1)CO2 (stereo unspecified),inactive: 5.6%
8,CCc1ccc(C(=O)NNc2ccc(F)cc2F)cc1,inconclusive: 37.9%
9,N#C/C(=N\Nc1cccc(F)c1)C(=N)N1CCCCCC1,inconclusive: 43.2%
10,CC(=O)OCCn1c2nc(=O)[nH]c(=O)c-2nc2cc(C)c(C)cc21,active: 122%
11,CCOc1ccc(NC(=O)N2CCC(n3c(=O)[nH]c4ccccc43)CC2)cc1,inconclusive: 40.7%
12,COc1ccccc1NC(=O)C(=O)N/N=C/c1ccc([N+](=O)[O-])s1,inactive: -1.09%
13,COc1cc(C(CCN2CCCC(C)C2)c2c(OC)cc(OC)c3c2OC(=O)CC3c2ccc(N(C)C)cc2)cc(OC)c1OC (stereo unspecified),inconclusive: 47.4%
14,Cc1ccc(NC(=O)NCC2CCN(Cc3cc(C)ccc3Cl)CC2)c(C)c1,inactive: 5.25%
15,Cc1ccc(C(=O)NCCSc2ccc(Cl)cc2)cc1[N+](=O)[O-],inconclusive: 50.9%
16,COc1ccc(Nc2nc(N)nc(CN3CCN(c4ccc(F)cc4)CC3)n2)cc1,inactive: 0.548%
17,COc1ccc(NC(=O)c2cccc(NS(=O)(=O)c3ccccc3)c2)cc1,inconclusive: 47.8%
18,CN1C(=O)NC(c2cccc([N+](=O)[O-])c2)C2=C1CCCC2=O (stereo unspecified),inactive: -2.41%
